Measured values published in the supplement of paper PMC8728848.
Some of the results follow.

Columns and labels:
Test in all cases: glycan array binding signal (z-score within array); higher = stronger binding
Details in all cases: glycan notation: IUPAC condensed, linker removed
[1] = molecular target: GlcNAc(b1-2)Gal(b1-3)GalNAc
In short: (§1)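 Columns mapping to the same glycan were averaged after glycan names were converted to IUPAC-condensed notation. The data come from 3228 arrays in the Consortium for Functional Glycomics database, limited to those with an available protein sequence. Binding is reported as a within-array Z-score averaged across arrays of one protein sequence and across linkers.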

[2] = molecular target: GlcNAc(b1-2)Man(a1-3)[GlcNAc(b1-2)Man(a1-6)]Man(b1-4)GlcNAc(b1-4)GlcNAc
In short: as §1

[3] = molecular target: GlcNAc(b1-2)Man(a1-3)[GlcNAc(b1-2)Man(a1-6)]Man(b1-4)GlcNAc(b1-4)[Fuc(a1-6)]GlcNAc
In short: as §1

[4] = molecular target: GlcNAc(b1-2)Man(a1-3)[GlcNAc(b1-4)][GlcNAc(b1-2)Man(a1-6)]Man(b1-4)GlcNAc(b1-4)GlcNAc
In short: as §1

[5] = molecular target: GlcNAc(b1-2)Man(a1-3)[GlcNAc(b1-4)][GlcNAc(b1-2)Man(a1-6)]Man(b1-4)GlcNAc(b1-4)[Fuc(a1-6)]GlcNAc
In short: as §1

[6] = molecular target: GlcNAc(b1-2)[GlcNAc(b1-4)]Man(a1-3)[GlcNAc(b1-2)Man(a1-6)]Man(b1-4)GlcNAc(b1-4)GlcNAc
In short: as §1

[7] = molecular target: GlcNAc(b1-2)[GlcNAc(b1-4)]Man(a1-3)[GlcNAc(b1-4)][GlcNAc(b1-2)Man(a1-6)]Man(b1-4)GlcNAc(b1-4)GlcNAc
In short: as §1

[8] = molecular target: GlcNAc(b1-2)[GlcNAc(b1-4)]Man(a1-3)[GlcNAc(b1-4)][GlcNAc(b1-2)[GlcNAc(b1-6)]Man(a1-6)]Man(b1-4)GlcNAc(b1-4)GlcNAc
In short: as §1

[9] = molecular target: GlcNAc(b1-2)[GlcNAc(b1-4)]Man(a1-3)[GlcNAc(b1-4)][GlcNAc(b1-2)[GlcNAc(b1-6)]Man(a1-6)]Man(b1-4)GlcNAc(b1-4)[Fuc(a1-6)]GlcNAc
In short: as §1

[10] = molecular target: GlcNAc(b1-2)[GlcNAc(b1-6)]Man(a1-6)[GlcNAc(b1-2)Man(a1-3)]Man(b1-4)GlcNAc(b1-4)GlcNAc
In short: as §1

[11] = molecular target: GlcNAc(b1-2)[GlcNAc(b1-6)]Man(a1-6)[GlcNAc(b1-2)Man(a1-3)]Man(b1-4)GlcNAc(b1-4)[Fuc(a1-6)]GlcNAc
In short: as §1

[12] = molecular target: GlcNAc(b1-2)[GlcNAc(b1-6)]Man(a1-6)[GlcNAc(b1-4)][GlcNAc(b1-2)Man(a1-3)]Man(b1-4)GlcNAc(b1-4)GlcNAc
In short: as §1

GlcNAc(b1-3)Fuc = molecular target: GlcNAc(b1-3)Fuc
In short: as §1

GlcNAc(b1-3)Gal = molecular target: GlcNAc(b1-3)Gal
In short: as §1

[13] = molecular target: GlcNAc(b1-3)Gal(b1-3)GalNAc
In short: as §1

GlcNAc(b1-3)Gal(b1-4)Glc = molecular target: GlcNAc(b1-3)Gal(b1-4)Glc
In short: as §1

[14] = molecular target: GlcNAc(b1-3)Gal(b1-4)GlcNAc
In short: as §1

[15] = molecular target: GlcNAc(b1-3)Gal(b1-4)GlcNAc(b1-2)Man(a1-3)[GlcNAc(b1-3)Gal(b1-4)GlcNAc(b1-2)Man(a1-6)]Man(b1-4)GlcNAc(b1-4)GlcNAc
In short: as §1

[16] = molecular target: GlcNAc(b1-3)Gal(b1-4)GlcNAc(b1-2)Man(a1-3)[GlcNAc(b1-3)Gal(b1-4)GlcNAc(b1-2)Man(a1-6)]Man(b1-4)GlcNAc(b1-4)[Fuc(a1-6)]GlcNAc
In short: as §1

[17] = molecular target: GlcNAc(b1-3)Gal(b1-4)GlcNAc(b1-2)[GlcNAc(b1-3)Gal(b1-4)GlcNAc(b1-6)]Man(a1-6)[GlcNAc(b1-3)Gal(b1-4)GlcNAc(b1-2)Man(a1-3)]Man(b1-4)GlcNAc(b1-4)GlcNAc
In short: as §1

[18] = molecular target: GlcNAc(b1-3)Gal(b1-4)GlcNAc(b1-3)Gal(b1-4)GlcNAc
In short: as §1

[19] = molecular target: GlcNAc(b1-3)Gal(b1-4)GlcNAc(b1-3)Gal(b1-4)GlcNAc(b1-2)Man(a1-3)[GlcNAc(b1-3)Gal(b1-4)GlcNAc(b1-3)Gal(b1-4)GlcNAc(b1-2)Man(a1-6)]Man(b1-4)GlcNAc(b1-4)GlcNAc
In short: as §1

[20] = molecular target: GlcNAc(b1-3)Gal(b1-4)GlcNAc(b1-3)Gal(b1-4)GlcNAc(b1-2)Man(a1-3)[GlcNAc(b1-3)Gal(b1-4)GlcNAc(b1-3)Gal(b1-4)GlcNAc(b1-2)Man(a1-6)]Man(b1-4)GlcNAc(b1-4)[Fuc(a1-6)]GlcNAc
In short: as §1

[21] = molecular target: GlcNAc(b1-3)Gal(b1-4)GlcNAc(b1-3)Gal(b1-4)GlcNAc(b1-2)[GlcNAc(b1-3)Gal(b1-4)GlcNAc(b1-3)Gal(b1-4)GlcNAc(b1-6)]Man(a1-6)[GlcNAc(b1-3)Gal(b1-4)GlcNAc(b1-3)Gal(b1-4)GlcNAc(b1-2)Man(a1-3)]Man(b1-4)GlcNAc(b1-4)[Fuc(a1-6)]GlcNAc
In short: as §1

[22] = molecular target: GlcNAc(b1-3)Gal(b1-4)GlcNAc(b1-3)Gal(b1-4)GlcNAc(b1-3)Gal(b1-4)GlcNAc(b1-2)Man(a1-3)[GlcNAc(b1-3)Gal(b1-4)GlcNAc(b1-3)Gal(b1-4)GlcNAc(b1-3)Gal(b1-4)GlcNAc(b1-2)Man(a1-6)]Man(b1-4)GlcNAc(b1-4)GlcNAc
In short: as §1

[23] = molecular target: GlcNAc(b1-3)Gal(b1-4)GlcNAc(b1-3)Gal(b1-4)GlcNAc(b1-3)Gal(b1-4)GlcNAc(b1-2)Man(a1-3)[GlcNAc(b1-3)Gal(b1-4)GlcNAc(b1-3)Gal(b1-4)GlcNAc(b1-3)Gal(b1-4)GlcNAc(b1-2)Man(a1-6)]Man(b1-4)GlcNAc(b1-4)[Fuc(a1-6)]GlcNAc
In short: as §1

[24] = molecular target: GlcNAc(b1-3)Gal(b1-4)GlcNAc(b1-3)Gal(b1-4)GlcNAc(b1-3)Gal(b1-4)GlcNAc(b1-2)[GlcNAc(b1-3)Gal(b1-4)GlcNAc(b1-3)Gal(b1-4)GlcNAc(b1-3)Gal(b1-4)GlcNAc(b1-6)]Man(a1-6)[GlcNAc(b1-3)Gal(b1-4)GlcNAc(b1-3)Gal(b1-4)GlcNAc(b1-3)Gal(b1-4)GlcNAc(b1-2)Man(a1-3)]Man(b1-4)GlcNAc(b1-4)[Fuc(a1-6)]GlcNAc
In short: as §1

[25] = molecular target: GlcNAc(b1-3)Gal(b1-4)GlcNAc(b1-3)Gal(b1-4)GlcNAc(b1-3)Gal(b1-4)GlcNAc(b1-3)Gal(b1-4)GlcNAc(b1-2)Man(a1-3)[GlcNAc(b1-3)Gal(b1-4)GlcNAc(b1-3)Gal(b1-4)GlcNAc(b1-3)Gal(b1-4)GlcNAc(b1-3)Gal(b1-4)GlcNAc(b1-2)Man(a1-6)]Man(b1-4)GlcNAc(b1-4)GlcNAc
In short: as §1

[26] = molecular target: GlcNAc(b1-3)Gal(b1-4)GlcNAc(b1-3)Gal(b1-4)GlcNAc(b1-3)Gal(b1-4)GlcNAc(b1-3)Gal(b1-4)GlcNAc(b1-2)Man(a1-3)[GlcNAc(b1-3)Gal(b1-4)GlcNAc(b1-3)Gal(b1-4)GlcNAc(b1-3)Gal(b1-4)GlcNAc(b1-3)Gal(b1-4)GlcNAc(b1-2)Man(a1-6)]Man(b1-4)GlcNAc(b1-4)[Fuc(a1-6)]GlcNAc
In short: as §1

[27] = molecular target: GlcNAc(b1-3)Gal(b1-4)GlcNAc(b1-3)Gal(b1-4)GlcNAc(b1-3)Gal(b1-4)GlcNAc(b1-3)Gal(b1-4)GlcNAc(b1-2)[GlcNAc(b1-3)Gal(b1-4)GlcNAc(b1-3)Gal(b1-4)GlcNAc(b1-3)Gal(b1-4)GlcNAc(b1-3)Gal(b1-4)GlcNAc(b1-6)]Man(a1-6)[GlcNAc(b1-3)Gal(b1-4)GlcNAc(b1-3)Gal(b1-4)GlcNAc(b1-3)Gal(b1-4)GlcNAc(b1-3)Gal(b1-4)GlcNAc(b1-2)Man(a1-3)]Man(b1-4)GlcNAc(b1-4)[Fuc(a1-6)]GlcNAc
In short: as §1

[28] = molecular target: GlcNAc(b1-3)Gal(b1-4)GlcNAc(b1-3)Gal(b1-4)GlcNAc(b1-3)GalNAc
In short: as §1

[29] = molecular target: GlcNAc(b1-3)Gal(b1-4)GlcNAc(b1-3)GalNAc
In short: as §1

[30] = molecular target: GlcNAc(b1-3)Gal(b1-4)GlcNAc(b1-3)[GlcNAc(b1-3)Gal(b1-4)GlcNAc(b1-3)]GalNAc
In short: as §1

[31] = molecular target: GlcNAc(b1-3)Gal(b1-4)GlcNAc(b1-6)[Gal(b1-3)]GalNAc
In short: as §1

[32] = molecular target: GlcNAc(b1-3)Gal(b1-4)GlcNAc(b1-6)[GlcNAc(b1-3)Gal(b1-3)]GalNAc
In short: as §1

[33] = molecular target: GlcNAc(b1-3)Gal(b1-4)GlcNAc(b1-6)[GlcNAc(b1-3)]Gal(b1-4)GlcNAc
In short: as §1

GlcNAc(b1-3)GalNAc = molecular target: GlcNAc(b1-3)GalNAc
In short: as §1

GlcNAc(b1-3)Man = molecular target: GlcNAc(b1-3)Man
In short: as §1

[34] = molecular target: GlcNAc(b1-3)[GlcNAc(b1-4)][GlcNAc(b1-6)]GlcNAc
In short: as §1

[35] = molecular target: GlcNAc(b1-3)[GlcNAc(b1-6)]Gal(b1-4)GlcNAc
In short: as §1

[36] = molecular target: GlcNAc(b1-3)[GlcNAc(b1-6)]GalNAc
In short: as §1

[37] = molecular target: GlcNAc(b1-4)Gal(b1-4)GlcNAc
In short: as §1

GlcNAc(b1-4)GlcNAc = molecular target: GlcNAc(b1-4)GlcNAc
In short: as §1

[38] = molecular target: GlcNAc(b1-4)GlcNAc(b1-4)GlcNAc
In short: as §1

[39] = molecular target: GlcNAc(b1-4)GlcNAc(b1-4)GlcNAc(b1-4)GlcNAc(b1-4)GlcNAc
In short: as §1

B1: SP15308F-bth-333-19-333 (Bacteroides thetaiotaomicron) (protein)
chain: SCNNEWESEQYVQMVSFKAPVNAQGVTPIYIRYKPEGKVTYQLPLIVSGSTMNSKDLNVHVGLDLDTLDVLNVEHFGSRKELFFKPLENKYYEFPETVQIPAGECTSLLPIDFALKDLDQVDKWVLPLAIQSNDPSHNYQANPRKFYRRAMLRISPFNDYSGQYSATAYKVYFKGNEKEAIVPEYHTSYVIDDKTIFFYAGLIDIDRLDRKYYKIKFEFTEEKIDLQTRKLKISSDNEDINLVVKGQPSYTVEEEMDATRPYLKHIYVTINNLEYEFTDYTSVPGYPLEYVVKGSLTMERKINTQIPDEDQAIEW
[1]
  glycan array binding signal (z-score): -0.835
[2]
  glycan array binding signal (z-score): -0.298
[3]
  glycan array binding signal (z-score): 0.59
[4]
  glycan array binding signal (z-score): -0.591
[5]
  glycan array binding signal (z-score): -0.288
[6]
  glycan array binding signal (z-score): 0.866
[7]
  glycan array binding signal (z-score): -1.44
[8]
  glycan array binding signal (z-score): -1.46
[9]
  glycan array binding signal (z-score): -0.642
[10]
  glycan array binding signal (z-score): -0.327
[11]
  glycan array binding signal (z-score): -0.049
[12]
  glycan array binding signal (z-score): -1.18
GlcNAc(b1-3)Fuc
  glycan array binding signal (z-score): -1.48
GlcNAc(b1-3)Gal
  glycan array binding signal (z-score): 0.015
[13]
  glycan array binding signal (z-score): 0.458
GlcNAc(b1-3)Gal(b1-4)Glc
  glycan array binding signal (z-score): 0.588
[14]
  glycan array binding signal (z-score): -0.835
[15]
  glycan array binding signal (z-score): 0.374
[16]
  glycan array binding signal (z-score): 0.789
[17]
  glycan array binding signal (z-score): 2.85
[18]
  glycan array binding signal (z-score): -0.237
[19]
  glycan array binding signal (z-score): 0.614
[20]
  glycan array binding signal (z-score): -0.419
[21]
  glycan array binding signal (z-score): -0.319
[22]
  glycan array binding signal (z-score): 1.2
[23]
  glycan array binding signal (z-score): 0.405
[24]
  glycan array binding signal (z-score): 0.587
[25]
  glycan array binding signal (z-score): -0.759
[26]
  glycan array binding signal (z-score): 2.43
[27]
  glycan array binding signal (z-score): 0.208
[28]
  glycan array binding signal (z-score): -0.605
[29]
  glycan array binding signal (z-score): 1.39
[30]
  glycan array binding signal (z-score): 0.497
[31]
  glycan array binding signal (z-score): -0.053
[32]
  glycan array binding signal (z-score): -0.838
[33]
  glycan array binding signal (z-score): -0.653
GlcNAc(b1-3)GalNAc
  glycan array binding signal (z-score): 0.057
GlcNAc(b1-3)Man
  glycan array binding signal (z-score): -0.315
[34]
  glycan array binding signal (z-score): -0.542
[35]
  glycan array binding signal (z-score): 0.452
[36]
  glycan array binding signal (z-score): 0.482
[37]
  glycan array binding signal (z-score): -1.27
GlcNAc(b1-4)GlcNAc
  glycan array binding signal (z-score): -0.867
[38]
  glycan array binding signal (z-score): -1.92
[39]
  glycan array binding signal (z-score): -0.314
